# Laboratory results as given in PubChem BioAssay AID1347423 (Functional Genomics Laboratory (NCATS/FGL), 2020).
# In all, about 52,000 sequences went through this assay and about 210 (0.4%) were called active.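 The calls were made as follows: active = gene whose silencing raises cell survival under the drug, median off-target-corrected z-score across its silencing RNAs 2 or more; inactive = the rest.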 This is one part of the list.
# Assay: Resistance to Poly (ADP-Ribose) Polymerase inhibitor: Gene Identification via Genome-wide siRNA Screen
# Conditions: mouse BRCA2 R2336H ES cells, olaparib, CellTiter-Glo viability; active compounds read high
# Text: The role of Poly (ADP-Ribose) Polymerase (PARP) proteins in DNA repair has been elegantly utilized for the synthetic lethality-based treatment of BRCA-deficient tumors by PARP inhibitors. PARP inhibitors are now being used for treatment of BRCA-deficient breast and ovarian cancers. […] While several mechanisms of drug resistance have been identified, majority of these tumors develop drug resistance due to unknown causes. To identified novel regulators of chemo-resistance in BRCA2-mutated cells, we performed a genome wide siRNA library screen. We have found ES cells expressing a hypomorphic allele of BRCA2 to be hypersensitive to PAPP inhibitors (such as olaparib). We used ES cells expressing a mutant allele of BRCA2 that has a single amino acid substitution at position 2336 (arginine to histidine, R2336H). The screen was conducted using an Ambion (Thermo) Silencer Mouse Genome siRNA collection. The library targets 17,575 mouse genes with 3 siRNAs per gene. TET2 (E130014J05Rik) was identified as a top candidate.
# Transfections were performed in 384 well plates (Corning 3707). Plates were coated with 0.1% gelatin in H2O overnight at ambient temperature. Gelatin solution was aspirated (BioTek EL406) and siRNAs were printed using a Bravo VPrep liquid handler integrated within a BioCel automation platform (Agilent). Cell viability was measured using CellTiter Glo (Promega). For transfections, […] of serum free media containing Lipofectamine RNAiMax […] was added to wells containing siRNA (0.8pmol). Lipid and siRNA were allowed to complex for 45 min at ambient temperature before addition of 1000 cells in DMEM, 30% FBS to yield final transfection mixtures containing 20 nM siRNA in DMEM, 15% FBS. PARPi (olaparib, AZD2281) was added 48 h post-transfection (500 nM) and viability (CellTiter Glo, Promega) was assayed 72 h later on a PerkinElmer Envision 2104 Multilabel plate reader. Ambion Silencer Select Negative Control #2 was incorporated on all screening plates (16 wells) and the median negative control value on each plate was used for normalization. An siRNA targeting Trp53 was used as a positive control. This control yielded a median protective effect of ~1.9 fold versus negative control throughout the screen. The median absolute deviation (MAD) based z-score was calculated for each siRNA. Genes were then ranked by taking the median value for all siRNAs tested against a given gene. Scores were also adjusted for seed-based off-target effects to help deprioritize likely false positives.
row,Sequence,z-score
1,GGCUGCACAAACAUGGUUCTT against Pard6a,inactive: -0.00401
2,GCAUUGUCCAGGUAUCUCATT against B230206H07Rik,inactive: -0.87
3,GGACUUGGACUGUGAAAACTT against Vgll4,inactive: -1.47
4,GGAGAUUUUGAAUAGUAUCTT against Smc4l1,inactive: 0.81
5,GGAUUUCACAGUCAAAAUUTT against Insrr,inactive: 0.16
6,GCAAGACGUGACCUGAAAGTT against Gpc3,inactive: -0.384
7,GGAAAAUGACACAGGUAUCTT against Entpd2,inactive: 0.0364
8,GGAUCUGAAGACAGUGUUUTT against Dap3,inactive: 3.39
9,CCUAACUAAGCUUUCCUUUTT against V2r15,inactive: -0.0904
10,GGAACAAAUGGACGAUCUGTT against Lgtn,inactive: 2.34
11,GGGAGAAGUGCUGUGGAUUTT against Fras1,inactive: 0.552
12,GGAACAAGAAGUUGAAACATT against Capn6,inactive: -2.01
13,GGAUAGCAUCCUCUUGCAUTT against Fa2h,inactive: 0.336
14,GGCUGAGCUGAUCUUCUUATT against Wnt8a,inactive: 0.668
15,CCCGGAAUAAGACAAUUUCTT against Olfr788,inactive: 0.143
16,GGUCCAGAAGCAGAUGCUUTT against Zdhhc15,inactive: -2.28
17,GGUCAAAGUGAUUGUGUGUTT against Cdh16,inactive: 0.535
18,GAGAACUCUCUAAACAAGUTT against Cks2,inactive: -0.465
19,GGCAAAGAAAACAUCAGAGTT against Lap3,inactive: 0.0275
20,CCUCAAUUUCGAAGACCCUTT against Asb6,inactive: 1.02
21,GCUGUUUAAUCUGUUAUGCTT against Rps17,inactive: -1.02
22,GGCUGAUGUGAUGAUUGUATT against Ndufs7,inactive: -0.3
23,GCUAGCAGGCUCAGUUUACTT against D10Wsu93e,inactive: -0.548
24,GGUGUUCGACGUGACCAAATT against Pgrmc1,inactive: 1.88
25,GGAAGAACUGUCAAAGAAATT against Cd3g,inactive: 0.565
26,UGGUUUCUCAAGCACUAGUTT against AW146299,inactive: -0.12

# Shown with bars between the fields: entries from further up.
row | Sequence | z-score
15 | CCCGGAAUAAGACAAUUUCTT against Olfr788 | inactive: 0.143
16 | GGUCCAGAAGCAGAUGCUUTT against Zdhhc15 | inactive: -2.28

# The results go on.

row,Sequence,z-score
1,GGGCAACAGCUUCCAUAAATT against Csrp1,inactive: 0.705
2,GGAGAUCCACCUUUUCAAATT against Fap,inactive: -0.111
3,GGCAAAUCCUCAAAGAUGUTT against Abcg5,inactive: 0.366
4,GGGAUCUCCAUACUCUCCUTT against Prima1,inactive: -1.28
5,GGAGAAGCUAAAAUGUGAGTT against 5730589L02Rik,inactive: 0.512
6,CCAAAUUAGCUUAUGUUCUTT against Sgol1,inactive: -0.503
7,GGAGCAGUGAUGGAGAAUATT against C230012O17Rik,inactive: -1.7
8,GGUUCCUUAAACAUUCAGATT against Sas,inactive: 0.239
9,GGAAGAAUCUGAUUCGUAATT against Snapc5,inactive: 0.261
10,CGACCCUAAGAAGAAUUUUTT against Nsdhl,inactive: 0.55
11,GGAAUUACCAGUGAAAAAUTT against 9630054F20Rik,inactive: 0.212
12,GGAACUGUGUGUCUUCUCCTT against Kcns3,inactive: -0.3
13,GGAAAAAAAAGGAUUUCUCTT against Pnkp,inactive: -0.392
14,CGGAGUCAUACUUUUUCGATT against 9230105E10Rik,inactive: 0.44
15,GGAGAAAGGUGGUUUGGUATT against Hcngp,inactive: -1.24
16,GGAAUAUGUGUGGACUAGATT against Tor3a,inactive: 0.0178
17,CCUACACAUCCUUAAAGUGTT against D330012D11Rik,inactive: 1.16
18,GCAAAACCUAACUAUGUUUTT against 2410017I18Rik,inactive: -1.84
19,GGUCUGGAGACUUUCAGUCTT against Hexa,inactive: 0.767
20,GGAUUUUAAUGGGCUAUGCTT against Zfp114,inactive: -0.366
21,UCUGUGGACCAGGAUUUGGTT against Pcsk1n,inactive: -1.1
22,GGAAAAUGGAAUUUGAAGCTT against Ccnb2,inactive: -0.144
23,GCUACUGUACAUCUACUACTT against 2810468K17Rik,inactive: -0.655
24,GGACUUGAAGAUGUACCAGTT against Il12a,inactive: -0.0396
25,GCUAGGUGUUUGAAGCCUCTT against Mixl1,inactive: -0.726
26,CCUUUAGAGGAAUUCACUUTT against Npas2,inactive: -0.324
